Source: patent publication US5559232A, “Carboxamides” (Hoffmann-La Roche Inc., priority 1993, dated 1996)
At least one compound was matched to its structure with a doubt left.

Target: trypsin
Assay: inhibition of the amidolytic activity of trypsin (chromogenic substrate S-2251)
Assay type: biochemical
Conditions: substrate S-2251, 200 and 750 μM, otherwise analogous to thrombin

Compound	Ki [µM]
N=C(N)N1CCC[C@@H](CNC(=O)C[C@H](NC(=O)COc2ccccc2)C(=O)N(CCNC(=O)c2cnccn2)C2CC2)C1 [Example 21d, N4-[(S)-1-(amino-imino-methyl)-piperidin-3-ylmethyl]N1-cyclopropyl-2-phenoxyacetylamino-N1-(2-pyrazin-2-ylcarbonylamino-ethyl)-succinamide]	25
N=C(N)N1CCC[C@@H](CNC(=O)C[C@H](NC(=O)CSc2ncccn2)C(=O)N(CCNC(=O)c2cnccn2)C2CC2)C1 [Example 20, (S)-N4-[(S)-1-(amino-imino-methyl)-piperidin-3-ylmethyl]-N1-cyclopropyl-N1-(2-pyrazin-2-ylcarbonylamino-ethyl)-2-pyrimidin-2-ylsulphanylacetylamino-succinamide]	4.5
N=C(N)N1CCOC(CNC(=O)C[C@H](NC(=O)OCc2ccccc2)C(=O)N(CC(=O)O)C2CC2)C1 (stereo partly drawn) [Example 6a]	140
